Data from the primary screen of doi:10.1371/journal.pone.0140310, rounded.

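Human melanoma cells were exposed to a pair of drugs for 72 h in 1,536-well plates and read by automated microscopy after fixing and staining. Values are the share of nuclei positive for cleaved PARP as a percentage of the same share in the DMSO control: 100 is the control level, higher means more apoptosis. Every drug was used at one fixed concentration, the higher of two screened. These are primary screening values without error estimates. Basal and induced levels differ widely between cell lines.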
This is part of the screen, not chosen by result.
An entry leaves out what has no value listed here.
A dash means that no value is listed here.

Compounds and concentrations:
cisplatin: N.N.[Cl][Pt][Cl] at 8 µM
veliparib: C[C@]1(c2nc3c(C(N)=O)cccc3[nH]2)CCCN1 at 7 µM
BI-D1870: CC(C)CCN1c2nc(Nc3cc(F)c(O)c(F)c3)ncc2N(C)C(=O)C1C (stereo not given) at 1 µM
FK866: O=C(/C=C/c1cccnc1)NCCCCC1CCN(C(=O)c2ccccc2)CC1 at 0.05 µM
T0901317: O=S(=O)(c1ccccc1)N(CC(F)(F)F)c1ccc(C(O)(C(F)(F)F)C(F)(F)F)cc1 at 7 µM
dovitinib: CN1CCN(c2ccc3nc(-c4c(N)c5c(F)cccc5[nH]c4=O)[nH]c3c2)CC1 at 0.5 µM
pioglitazone: CCc1ccc(CCOc2ccc(CC3SC(=O)NC3=O)cc2)nc1 (stereo not given) at 10 µM
ruxolitinib: N#CC[C@H](C1CCCC1)n1cc(-c2ncnc3[nH]ccc23)cn1 at 5 µM
JZL184: O=C(Oc1ccc([N+](=O)[O-])cc1)N1CCC(C(O)(c2ccc3c(c2)OCO3)c2ccc3c(c2)OCO3)CC1 at 5 µM

| # | Pair | COLO 829 | C32 | MZ2-MEL | MEL-HO | 501mel | COLO 792 | WM451Lu | G-361 | WM3526 | LB2518-MEL | SK-MEL-2 | SK-MEL-30 | UACC-257 | A375 | COLO 800 |
|---|---|---|---|---|---|---|---|---|---|---|---|---|---|---|---|---|
| 1 | veliparib and cisplatin | 227 | 209 | 347 | 96.8 | - | 121 | 104 | 220 | 163 | 150 | 264 | 260 | 275 | 195 | 191 |
| 2 | BI-D1870 and JZL184 | 43.2 | 91.1 | 60.2 | 55.7 | 122 | 163 | 81.6 | 125 | 104 | 96.5 | 93.8 | 69.5 | 22.8 | 67.5 | 94.6 |
| 3 | BI-D1870 and ruxolitinib | 94.0 | 98.1 | 130 | 108 | 83.2 | 98.4 | 109 | 354 | 159 | 168 | 69.9 | 223 | 141 | 64.4 | 158 |
| 4 | cisplatin and dovitinib | 138 | 81.5 | 171 | 173 | - | 249 | 85.1 | 129 | 203 | 378 | 186 | 149 | 403 | 231 | 95.0 |
| 5 | T0901317 and cisplatin | 153 | 84.4 | 19.6 | 124 | 193 | 68.7 | 42.7 | 346 | 102 | 241 | 89.1 | 87.3 | 105 | 118 | 210 |
| 6 | BI-D1870 and FK866 | 389 | 81.5 | 1190 | 364 | 59.0 | 578 | 139 | 8970 | 170 | 704 | 2890 | 137 | 63.6 | 83.2 | 254 |
| 7 | pioglitazone and cisplatin | 116 | 92.2 | 160 | 90.3 | 454 | 135 | 163 | 309 | 159 | 309 | 101 | 69.5 | 200 | 296 | 112 |
| 8 | T0901317 and ruxolitinib | 81.4 | 84.0 | 55.0 | 230 | 81.7 | 220 | 39.3 | 447 | 58.4 | 122 | 56.8 | 92.8 | 25.6 | 126 | 115 |
| 9 | dovitinib and FK866 | 510 | 120 | 2910 | 144 | - | 1020 | 80.9 | 5730 | 197 | 511 | 3900 | 86.3 | 124 | 119 | 279 |
| 10 | T0901317 and veliparib | 83.6 | 90.0 | 67.4 | 157 | 51.3 | 157 | 62.2 | 88.3 | 193 | 69.0 | 159 | 60.3 | 24.2 | 77.5 | 190 |
| 11 | cisplatin and BI-D1870 | 166 | 79.7 | 114 | 222 | 90.4 | 84.9 | 141 | 194 | 90.5 | 202 | 142 | 87.2 | 159 | 126 | 88.4 |
| 12 | BI-D1870 and pioglitazone | 124 | 81.5 | 98.7 | 379 | 124 | 163 | 40.2 | 45.5 | 148 | 92.4 | 97.8 | 52.4 | 23.4 | 116 | 91.1 |
| 13 | ruxolitinib and veliparib | 127 | 95.1 | 245 | 214 | - | 268 | 80.5 | 198 | 66.2 | 215 | 140 | 123 | 48.9 | 81.0 | 343 |
| 14 | FK866 and T0901317 | 311 | 81.3 | 1010 | 376 | 82.0 | 613 | 89.8 | 7460 | 105 | 281 | 1670 | 142 | 35.6 | 49.4 | 238 |
| 15 | FK866 and veliparib | 444 | 83.0 | 688 | 157 | - | 423 | 148 | 8430 | 156 | 198 | 1340 | 134 | 40.6 | 64.2 | 92.9 |
| 16 | ruxolitinib and cisplatin | 343 | 97.6 | 754 | 54.5 | - | 224 | 55.2 | 1050 | 225 | 327 | 1000 | 267 | 407 | 216 | 148 |
| 17 | dovitinib and veliparib | 150 | 119 | 176 | 90.9 | - | 75.6 | 120 | 245 | 129 | 50.4 | 231 | 136 | 51.0 | 163 | 356 |
| 18 | pioglitazone and veliparib | 127 | 113 | 90.4 | 131 | 59.6 | 118 | 59.7 | 130 | 60.3 | 85.4 | 80.4 | 52.1 | 49.9 | 38.3 | 474 |
| 19 | JZL184 and pioglitazone | 88.7 | 110 | 136 | 54.6 | 48.2 | 38.0 | 18.4 | 35.4 | 62.0 | 90.8 | 27.2 | 40.0 | 33.3 | 48.7 | 187 |
| 20 | JZL184 and cisplatin | 130 | 90.3 | - | 124 | - | 117 | 228 | 72.8 | 43.7 | - | - | 143 | 121 | 242 | 128 |
| 21 | FK866 and ruxolitinib | 434 | 38.2 | 1470 | 140 | - | 612 | 58.2 | 3850 | 134 | 1530 | 5460 | 92.0 | 117 | 1050 | 236 |
| 22 | ruxolitinib and JZL184 | 247 | 82.5 | 144 | 70.5 | 420 | 69.4 | 81.9 | 287 | 146 | 76.8 | 107 | 102 | 26.8 | 79.9 | 92.9 |
| 23 | BI-D1870 and dovitinib | 204 | 186 | 266 | 456 | 230 | 113 | 48.3 | 297 | 113 | 112 | 282 | 51.8 | 32.3 | 82.8 | 161 |
| 24 | dovitinib and pioglitazone | 186 | 108 | 299 | 102 | 338 | 173 | 78.4 | 379 | 169 | 129 | 116 | 63.4 | 152 | 104 | 191 |
| 25 | veliparib and JZL184 | 76.8 | 89.7 | 106 | 43.0 | 78.0 | 63.6 | 31.2 | 29.7 | 90.3 | 55.8 | 91.5 | 136 | 28.9 | 277 | 118 |
| 26 | pioglitazone and FK866 | 214 | 89.5 | 1470 | 808 | 110 | 688 | 208 | 8190 | 59.2 | 916 | 1780 | 95.6 | 86.4 | 61.9 | 390 |
| 27 | T0901317 and BI-D1870 | 60.9 | 248 | 23.0 | 62.4 | 485 | 151 | 66.1 | 182 | 130 | 45.5 | 217 | 72.7 | 21.0 | 51.8 | 84.0 |
| 28 | dovitinib and JZL184 | 27.2 | 91.2 | 197 | 200 | 114 | 164 | 175 | 214 | 208 | 214 | 336 | 269 | 93.3 | 133 | 196 |
| 29 | T0901317 and dovitinib | 154 | 90.7 | - | 282 | - | 208 | 44.4 | 222 | 121 | - | 85.5 | 117 | 38.5 | 48.6 | 115 |

For reference, 2 entries once more:

* dovitinib and FK866 : COLO 829: 510; C32: 120; MZ2-MEL: 2910; MEL-HO: 144; COLO 792: 1020; WM451Lu: 80.9; G-361: 5730; WM3526: 197; LB2518-MEL: 511; SK-MEL-2: 3900; SK-MEL-30: 86.3; UACC-257: 124; A375: 119; COLO 800: 279
* BI-D1870 and dovitinib : COLO 829: 204; C32: 186; MZ2-MEL: 266; MEL-HO: 456; 501mel: 230; COLO 792: 113; WM451Lu: 48.3; G-361: 297; WM3526: 113; LB2518-MEL: 112; SK-MEL-2: 282; SK-MEL-30: 51.8; UACC-257: 32.3; A375: 82.8; COLO 800: 161